Results deposited as PubChem BioAssay AID1671195 (Yale University, 2021)

Aim: 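Genes whose knockdown alters LDL uptake in liver cancer cells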 (primary screen)
Cells: human Huh7 hepatoma cells
Knock-down reagent: siRNA pool against human genes, 18 nM
Duration: about 2 to 2.5 days of knockdown, then 8 h LDL uptake
Treatment: DiI-labelled LDL at 30 µg/ml for 8 h, in lipoprotein-deficient serum medium
Measurement: 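Per-cell DiI-LDL intensity by automated imaging; well means scaled to the plate median and given as a robust z-score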
Scale: robust z-score: higher = more LDL uptake after knockdown
Call rule: 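Active when two or more replicates show a robust z-score above 2 or below -2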
Here is an unselected part of about 22,000 reagents tested. Of all reagents, about 1,510 (6.9%) were called active. 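Active includes knockdowns raising or lowering LDL uptake; positive z-scores mean more uptake, negative mean less.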 No sequences are given here.

gene	PubChem SID	robust z-score, replicate 1	robust z-score, replicate 2	robust z-score, replicate 3	outcome
NELL1 (neural EGFL like 1)	SID442895538	-0.955	1.1	-0.684	inactive
RFC4 (replication factor C subunit 4)	SID442890560	0.373	0.429	0.398	inactive
LOC387912 (retired record)	SID442896776	-0.233	-0.184	-0.518	inactive
ZNF14 (zinc finger protein 14)	SID442896172	0.0338	-0.372	-0.397	inactive
IGSF1 (immunoglobulin superfamily member 1)	SID442897465	-0.94	-0.24	0.0137	inactive
SLC30A4	SID442885608	1.6	1.55	1.18	inactive
VWC2L (von Willebrand factor C domain containing 2 like)	SID442896957	-0.57	0.194	-0.616	inactive
NECAB3 (N-terminal EF-hand calcium binding protein 3)	SID442887768	0.713	1.17	0.653	inactive
CCSER1 (coiled-coil serine rich protein 1)	SID442898769	-0.51	-0.81	-0.289	inactive
VAMP5 (vesicle associated membrane protein 5)	SID442892026	1.17	0.403	-0.92	inactive
SGK2 (serum/glucocorticoid regulated kinase 2)	SID442890650	0.764	0.258	0.141	inactive
BRD7 (bromodomain containing 7)	SID442886855	1.36	0.106	1.67	inactive
FGF7 (fibroblast growth factor 7)	SID442890966	1.09	-0.707	0.666	inactive
MIR29B2CHG (MIR29B2 and MIR29C host gene)	SID442888863	0.496	0.7	0.75	inactive
PRMT9 (protein arginine methyltransferase 9)	SID442896479	-0.361	-0.443	-0.0278	inactive
TMEM135 (transmembrane protein 135)	SID442895157	0.0445	-0.195	-0.27	inactive
TAS2R13 (taste 2 receptor member 13)	SID442902430	-0.423	-1.98	-0.814	inactive
TMPRSS11BNL (TMPRSS11B N-terminal like (pseudogene))	SID442888518	0.608	0.811	0.698	inactive
ZNF589 (zinc finger protein 589)	SID442892489	-0.748	0.651	0.58	inactive
ZNF354B (zinc finger protein 354B)	SID442894379	-0.325	-0.478	0.629	inactive
WBP11 (WW domain binding protein 11)	SID442887475	0.849	0.746	1.12	inactive
SLC8A2	SID442893429	0.33	-0.363	0.187	inactive
LINC00355 (long independently transcribed non-coding RNA 355)	SID442900891	-0.972	-1.38	-0.113	inactive
HPS3 (HPS3 biogenesis of lysosomal organelles complex 2 subunit 1)	SID442889811	0.186	0.633	0.7	inactive
HGH1 (HGH1 cochaperone)	SID442888925	-0.765	1.46	1.22	inactive
MNT (MAX network transcriptional repressor)	SID442902943	-1.4	-1.1	-1.04	inactive
CXCL3 (C-X-C motif chemokine ligand 3)	SID442885758	0.621	1.66	1.87	inactive
NELL2 (neural EGFL like 2)	SID442887514	1.07	1.96	-0.329	inactive
TUBB7P (tubulin beta 7 pseudogene)	SID442889082	0.132	1.13	0.587	inactive
OR1J2 (olfactory receptor family 1 subfamily J member 2)	SID442889679	2.69	0.353	-1.47	inactive
ERBB4 (erb-b2 receptor tyrosine kinase 4)	SID442897742	0.0465	-0.538	-0.767	inactive
IL22RA2 (interleukin 22 receptor subunit alpha 2)	SID442892862	-0.789	1.62	-0.482	inactive
CCDC178 (coiled-coil domain containing 178)	SID442897335	-0.736	-0.0121	-0.376	inactive
PNLIPRP1 (pancreatic lipase related protein 1)	SID442887646	0.339	1.02	1.25	inactive
NEURL1 (neuralized E3 ubiquitin protein ligase 1)	SID442883468	2.61	1.98	3.92	active
CNN3 (calponin 3)	SID442884917	1.78	1.83	1.73	inactive
TRAPPC14 (trafficking protein particle complex subunit 14)	SID442888744	0.65	0.786	0.571	inactive
C17orf67 (chromosome 17 open reading frame 67)	SID442893330	0.245	0.11	-0.168	inactive
LOC389398 (retired record)	SID442904158	-1.6	-1.41	-1.53	inactive
FAM47A (family with sequence similarity 47 member A)	SID442903536	-1.76	-0.861	-1.35	inactive
DCDC2B (doublecortin domain containing 2B)	SID442896605	-0.408	0.0029	-0.471	inactive
PLXNB1 (plexin B1)	SID442891470	0.022	0.0445	0.78	inactive
CEP126 (centrosomal protein 126)	SID442885856	1.65	0.899	1.48	inactive
RAB9B (RAB9B, member RAS oncogene family)	SID442885382	1.15	2.15	1.31	inactive
KLK2 (kallikrein related peptidase 2)	SID442893609	0.112	-0.154	0.133	inactive
CHPF (chondroitin polymerizing factor)	SID442884575	-2.47	-2.68	-2.83	active
PPHLN1 (periphilin 1)	SID442895746	-0.671	0.719	-0.654	inactive
LOC728743 (zinc finger domain-containing protein LOC728743)	SID442890351	0.462	0.846	-0.0215	inactive
GIPC1 (GIPC PDZ domain containing family member 1)	SID442887752	1.27	0.182	1.09	inactive
MMP26 (matrix metallopeptidase 26)	SID442891888	-0.435	-0.0864	1.22	inactive
RPL31P8 (ribosomal protein L31 pseudogene 8)	SID442892541	-0.00725	0.168	0.302	inactive
ERG28 (ergosterol biosynthesis 28 homolog)	SID442890131	0.806	0.479	0.0939	inactive
NPEPL1 (aminopeptidase like 1)	SID442902566	-1.55	-0.668	-1.1	inactive
ITIH3 (inter-alpha-trypsin inhibitor heavy chain 3)	SID442893284	0.351	-0.252	0.105	inactive
SLC7A10	SID442895867	-0.173	-0.263	-0.207	inactive
SPDYE1 (speedy/RINGO cell cycle regulator family member E1)	SID442892062	0.086	0.207	0.345	inactive
LOC286080 (retired record)	SID442886938	1.26	1.03	0.79	inactive
FRMPD1 (FERM and PDZ domain containing 1)	SID442887273	1.68	-0.0987	1.26	inactive
FAM230I (family with sequence similarity 230 member I)	SID442899384	-0.525	-0.748	-0.567	inactive
ABI1 (abl interactor 1)	SID442890638	0.473	-1.16	1.85	inactive
PAX4 (paired box 4)	SID442903085	-1.37	-1.38	-0.887	inactive
HSALR1 (HSP90AB1 associated lncRNA 1)	SID442893207	0.182	0.0796	-0.0325	inactive
SELPLG (selectin P ligand)	SID442895055	0.118	0.551	-1.06	inactive
VPS13A (vacuolar protein sorting 13 homolog A)	SID442900711	-0.692	-1.14	-0.553	inactive
HNRNPU (heterogeneous nuclear ribonucleoprotein U)	SID442885906	0.66	0.78	2.54	inactive
PPIL1 (peptidylprolyl isomerase like 1)	SID442892161	0.412	-0.109	0.301	inactive
STK11IP (serine/threonine kinase 11 interacting protein)	SID442885602	0.654	1.38	2.31	inactive
SH3KBP1 (SH3 domain containing kinase binding protein 1)	SID442884359	-2.23	-1.9	-1.87	active
HLA-DQA2 (major histocompatibility complex, class II, DQ alpha 2)	SID442896750	-0.543	0.211	-0.595	inactive
ACOT11 (acyl-CoA thioesterase 11)	SID442891621	0.0972	0.216	0.477	inactive
LAD1 (ladinin 1)	SID442890403	0.174	0.458	0.631	inactive
MMP20 (matrix metallopeptidase 20)	SID442889428	0.861	0.604	0.217	inactive
DMRTC2 (DMRT like family C2)	SID442902710	-0.325	-0.885	-2.19	inactive
TMEM53 (transmembrane protein 53)	SID442892031	0.179	0.441	0.033	inactive
MLH1 (mutL homolog 1)	SID442903579	-1.22	-1.52	-1.25	inactive
FGFR3 (fibroblast growth factor receptor 3)	SID442898450	-0.0573	-0.562	-0.882	inactive
ICOSLG (inducible T cell costimulator ligand)	SID442892851	0.591	0.0497	-0.29	inactive
LRRC3B (leucine rich repeat containing 3B)	SID442888672	0.544	0.784	0.714	inactive
ADAM8 (ADAM metallopeptidase domain 8)	SID442897895	-0.226	-0.95	-0.132	inactive
IWS1 (interacts with SUPT6H, CTD assembly factor 1)	SID442884259	-2.08	-0.569	-1.99	active
LOC400172 (retired record)	SID442894170	0.145	-0.13	-0.117	inactive
CTPS2 (CTP synthase 2)	SID442890953	1.53	-0.157	-0.322	inactive
PGC (progastricsin)	SID442886778	1.39	0.854	0.959	inactive
TMEM229B (transmembrane protein 229B)	SID442895328	-0.202	0.0284	-0.302	inactive
ERI3 (ERI1 exoribonuclease family member 3)	SID442890526	0.33	-0.0194	0.905	inactive
ALG8 (ALG8 alpha-1,3-glucosyltransferase)	SID442888053	0.576	1.35	0.443	inactive
MTREX (Mtr4 exosome RNA helicase)	SID442897276	-0.276	-0.534	-0.291	inactive

Reagents listed so far with an active call (4):
gene	PubChem SID	robust z-score, replicate 1	robust z-score, replicate 2	robust z-score, replicate 3	outcome
NEURL1 (neuralized E3 ubiquitin protein ligase 1)	SID442883468	2.61	1.98	3.92	active
CHPF (chondroitin polymerizing factor)	SID442884575	-2.47	-2.68	-2.83	active
SH3KBP1 (SH3 domain containing kinase binding protein 1)	SID442884359	-2.23	-1.9	-1.87	active
IWS1 (interacts with SUPT6H, CTD assembly factor 1)	SID442884259	-2.08	-0.569	-1.99	active
